# From article PMC7862700
# Chains of the proteins cited; added tags and fusions are not shown. Lines headed by an entry give the natural chain unless they say otherwise; changes in a name come on top.
# UniProt Q00613: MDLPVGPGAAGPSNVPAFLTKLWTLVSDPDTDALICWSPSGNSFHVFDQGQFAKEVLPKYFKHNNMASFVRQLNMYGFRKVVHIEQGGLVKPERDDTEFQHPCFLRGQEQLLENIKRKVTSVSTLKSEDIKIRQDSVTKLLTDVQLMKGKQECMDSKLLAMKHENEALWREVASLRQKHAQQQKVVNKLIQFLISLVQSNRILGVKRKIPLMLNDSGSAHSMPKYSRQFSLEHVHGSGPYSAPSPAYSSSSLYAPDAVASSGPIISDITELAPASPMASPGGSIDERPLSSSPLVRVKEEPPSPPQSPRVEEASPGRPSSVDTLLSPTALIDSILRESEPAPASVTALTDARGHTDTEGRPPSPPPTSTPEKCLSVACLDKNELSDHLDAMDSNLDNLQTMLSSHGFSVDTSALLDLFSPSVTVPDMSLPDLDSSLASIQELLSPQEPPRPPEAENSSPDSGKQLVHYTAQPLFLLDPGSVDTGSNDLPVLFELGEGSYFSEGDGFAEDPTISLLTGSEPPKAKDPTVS
# The entries are a selection whose mix differs from that of the whole data set. For part of these data: At the low end of the ranking, values are background and their order means little. Some of the results follow. For part of these data: Construct or isoform of the protein are uncertain.
# Molecular target: HSF1 (UniProt Q00613)
# Test: DAPPL (digital affinity profiling via proximity ligation, sequencing)
# Details: 10 mM Tris-HCl pH 7.5, 50 mM NaCl, 1 mM DTT, 4% glycerol, room temperature, 30 min; GST-TFs on glutathione beads, 16-mer random dsDNA library, 0.1% …; high values mean tight binding; double strand, one strand shown; scale: fold enrichment (6-mer frequency, TF over GST control)
row,Sequence,binding signal
1,AAAGGA,0.866
2,TGAGAG,0.564
3,TGCAGT,0.65
4,AGGCCT,0.898
5,GAGGGC,0.503
6,GGAACC,0.715
7,GGAAGG,0.636
8,CCGAGG,0.679
9,GCCATA,0.844
10,CCGGGG,0.552
11,TGCGAG,1.15
12,CATCGG,0.641
13,CTGGAG,0.798
14,GAGTTA,0.625
15,GCCATG,0.653
16,GTGCCA,0.655
17,GTCATG,0.63
18,GGAAAG,1.29
19,AGGGAG,0.335
20,GCAGGG,0.525

row,Sequence,binding signal
1,CGGGGC,0.454
2,GACAAG,0.691
3,CGTGGG,0.316
4,GCAAGA,0.792
5,CAGGGC,0.631
6,GGGTTG,0.664
7,GAGGAT,0.786
8,GGCATC,0.687
9,GGCGAA,0.799
10,CTGTCG,0.469
11,GACCAT,0.765
12,GGCGGG,0.264
13,AAAGAG,0.955
14,AGGTGG,0.565
15,AGTTAG,0.757
16,GGACGT,0.398
17,AGTGAA,0.817
18,GGCTGA,0.746
19,AGAGGG,0.732

# Molecular target: T1, ELF2 (UniProt Q15723)
# T1 sequence: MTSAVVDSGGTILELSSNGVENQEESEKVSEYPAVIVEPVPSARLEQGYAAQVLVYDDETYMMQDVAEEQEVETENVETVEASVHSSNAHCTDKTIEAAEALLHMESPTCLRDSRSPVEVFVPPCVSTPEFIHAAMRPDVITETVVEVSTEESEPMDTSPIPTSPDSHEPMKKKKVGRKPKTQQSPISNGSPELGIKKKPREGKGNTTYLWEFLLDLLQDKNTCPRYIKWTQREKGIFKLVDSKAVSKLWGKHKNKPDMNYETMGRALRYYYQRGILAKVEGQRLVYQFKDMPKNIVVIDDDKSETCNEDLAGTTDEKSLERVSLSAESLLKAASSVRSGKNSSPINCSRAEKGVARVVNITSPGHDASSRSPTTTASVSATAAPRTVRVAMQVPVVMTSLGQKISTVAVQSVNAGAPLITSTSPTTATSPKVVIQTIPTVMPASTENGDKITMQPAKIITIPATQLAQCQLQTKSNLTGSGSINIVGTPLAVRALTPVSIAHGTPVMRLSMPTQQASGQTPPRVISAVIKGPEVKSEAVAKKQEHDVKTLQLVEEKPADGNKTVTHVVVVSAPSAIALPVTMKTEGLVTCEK
# Test: as above
# Details: 10 mM Tris-HCl pH 7.5, 50 mM NaCl, 1 mM DTT, 4% glycerol, room temperature, 30 min; GST-TFs on glutathione beads, 16-mer random dsDNA library, 0.1% …; high values mean tight binding; double strand, one strand shown; scale: fold enrichment (6-mer frequency, TF over GST control)
row,Sequence,binding signal
1,AAAGGA,0.89
2,TGAGAG,0.545
3,TGCAGT,0.779
4,AGGCCT,0.862
5,GAGGGC,0.577
6,GGAACC,1
7,GGAAGG,1.04
8,CCGAGG,0.685
9,GCCATA,0.867
10,CCGGGG,0.848
11,TGCGAG,0.841
12,CATCGG,0.633
13,CTGGAG,0.65
14,GAGTTA,0.596
15,GCCATG,0.726
16,GTGCCA,0.748
17,GTCATG,0.828
18,GGAAAG,0.975
19,AGGGAG,0.361
20,GCAGGG,0.599

row,Sequence,binding signal
1,CGGGGC,0.591
2,GACAAG,0.743
3,CGTGGG,0.359
4,GCAAGA,0.79
5,CAGGGC,0.755
6,GGGTTG,0.825
7,GAGGAT,0.578
8,GGCATC,0.872
9,GGCGAA,0.698
10,CTGTCG,0.553
11,GACCAT,0.81
12,GGCGGG,0.31
13,AAAGAG,0.867
14,AGGTGG,0.593
15,AGTTAG,0.802
16,GGACGT,0.632
17,AGTGAA,0.928
18,GGCTGA,0.751
19,AGAGGG,0.681
